Z-score data for 68 sequences are collected here from PubChem BioAssay AID1508600 (Functional Genomics Laboratory (NCATS/FGL), 2020).

The campaign covered roughly 53,000 sequences. About 3,700 (7%) were called active.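 The calls were made as follows: active = gene knockdowns whose robust z-score for IL-1 alpha signal is at least 2 or at most -2, so actives lie on both sides; inactive = the rest.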 The list shows a part of the results.

The assay can be described thus: Components of the Cytosolic LPS Sensing Pathway: Gene Identification via Genome-wide siRNA Screen.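 Also: robust z of the log signal after scaling to non-targeting control siRNA wells of the plate.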 The note with it: RAW264.7 macrophages, IL-1a HTRF, actives lie on both sides, screened at 100 nM (by protocol), cells primed 5 h with Pam3CSK4 first. The method, boiled down: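 Read-out: IL-1a HTRF on supernatant, divided by plate negative-control median ×100, log-transformed and converted to robust z-score. Cells were RAW264.7 given 100 nM siRNA, Pam3CSK4-primed 5 hours, then LipidA-transfected 24 hour.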
In the case of CCCAAUGUUUCUAAUCAUGTT against Arhgap12, the z-score is inactive: 0.306. With GGCAUUUUCACAAAAGACUTT against Rab23 the figure was inactive: -1.43.

Take GGAUUUUCUUACACGGAUGTT against Cyct: the z-score was inactive: -0.129. The same measure for GGGCACGAUCCUCUUCAACTT against Nr0b2: inactive: 0.982; for GGAAGUUGUUUUGUUGGACTT against Epha2: inactive: 0.275. The same measure for CGAGUUCCUAUGUUGGUGCTT against Cldn2: inactive: -0.349; for GGCUUUCAAGGGUUGCCAATT against Ms4a3: inactive: -0.622; for GCAGUUCUCCUAUUUCAUCTT against Cdc45: active: 2.03. With GGGUAACGUGCUGCUUCUATT against Bri3 the figure was inactive: 0.989. For GGGUGAGAAGAAAAUCCGGTT against Zbtb7a, the z-score is inactive: -1.71. As for GGACCCAAUAAAACUUCCGTT against Ttc36, the z-score was inactive: 1.13. With GGUCUAAUAUAAACGGGCCTT against Ppp4r2 the figure was inactive: -0.561. With GGAUCCAUGCUGUCAGUGGTT against Sftpa1 the figure was active: 2.17; with CCGACUACGUCAAUUGGUUTT against Fbxo21, inactive: 0.148.

For GGAAGACCAGCACUUGAAATT against Klhl13, the z-score was inactive: 1.52. With GGCUGAAAAGGAAAAUCCATT against Pdcd10 the figure was inactive: 0.141; with GCCUCCAUGGGAAAUCAAGTT against Zfp37, inactive: -0.151; with GCAGAUGCUAACAUAUCCATT against Trim32, inactive: -0.902.

For the sequence GGUUUUUUGGUACCAAGUGTT against Unc93b1, the z-score is inactive: -0.71.

With CGAUGUUGGUAUUACUGUUTT against Armcx5, the z-score is inactive: 1.24. With GGUUGUCCCACAUACUUCCTT against Nr1d1 the figure was inactive: -0.0524; with GGCAUUGGUGUUUCAUUAATT against Gpm6a, inactive: 1.2; with GGAAGACGACACUGUGUGGTT against Reep6, inactive: 0.534. Take GGCCAUGGAAAAGUUCCGUTT against Kcna3: the z-score was inactive: -0.525. As for GGCUGUAGUGGUGCUAAUUTT against Slc10a2, the z-score was inactive: 1.12. With CGAUUUCACAAAAACAUGATT against Vta1 the figure was inactive: -0.394. The same measure for “CCCAAAGUGGUAUCCAAAGTT against 6030498E09Rik”: inactive: 1.01. The same measure for GCCAAGCAUUGGAACCAUGTT against Prss46: inactive: 1.06. In the case of GCCAACUGGAUAUUAACAATT against Dnm1l, the z-score is inactive: 1.02.

Consider GGAUGGUUACAAAAGAGAUTT against Dspp, for which the z-score is inactive: -0.85. With GCCACGUUCCUCAUCGAUUTT against Plscr3 the figure was inactive: -0.618. With GGAGUAUGCUCAGGUGAUCTT against Eif1a the figure was inactive: 0.886; with CCAACGUGAGCAUAUUAUATT against Adcy2, inactive: 0.0638. With GGAAAUGGUGCAGAAAACCTT against Marchf6 the figure was inactive: 0.666; with GGACAUUAGAGAUUUCCGATT against Isyna1, inactive: -1.52. On to CCAUAUCUUUAGCUCCACATT against Pate14, for which the z-score is inactive: -0.501. The same measure for GGCUGGAGUCAAAGGAAAGTT against Nudt4: inactive: 1.81; for GGCUCUUGAUACGAAUGUATT against Aadac: inactive: -0.44.

On to CGAAGUAUUUGGUGGACCATT against Tmem254a, for which the z-score was inactive: -0.457.

In the case of GGAUUUGGGUUUUCUAUAATT against Cfb, the z-score is inactive: -0.0373. With CCAACUACACACUACGCAUTT against Grik5 the figure was inactive: -0.00669; with GGGACUUCCAAGGAAAGUGTT against Dbi, inactive: 1.28; with “CGAUCUGCUAUCAUAAGCATT against A630005I04Rik”, inactive: -1.1.

On to GGAUGUGAUGAAGUUGGCCTT against Olfr78, for which the z-score is inactive: -1.96. Regarding GGUGCCUCUUAAAUAAAAATT against Efcab8, the z-score was inactive: 0.00992. The same measure for GGUACUUUGUGGGAGAAGATT against Actrt1: inactive: 0.835; for GGAAACUACAAAUUUGGCATT against Krtap6-2: inactive: 0.195; for GGAACUGGUCUCAGAAGAGTT against Cd79b: inactive: -0.675.

For the sequence GGCUGUCUAUAAGAAUGUUTT against Nup210, the z-score was inactive: -0.812. The same measure for GGAGGAAGAGAUUUUAAACTT against Rps8: inactive: 0.158; for GGGCACAGGAUCGUAUGAATT against Ncs1: inactive: 0.187. With GGACAACAAAUUUCGACUATT against Trappc6b the figure was inactive: 0.111. With GGUUUUUUAAGUUCAGCCGTT against Got2 the figure was inactive: -0.748. With GCCCAGAAUGCAAGAAAUATT against Scgb2b26, the z-score was inactive: 0.112. For the sequence GGUUUUCAUAAAUCUCAGCTT against Tns4, the z-score is inactive: -0.291. With GGGAUUCUGUCCUUGGUCATT against Havcr2 the figure was inactive: -1.04. With CCGUUUACCAACCAAGAAUTT against Tnfrsf17 the figure was inactive: 0.0608. With GGCUGCCAGUCAACUUUCUTT against Krtap14 the figure was inactive: 0.371.

For GCUUAAACUACAGCCCGAGTT against Spag5, the z-score is inactive: -0.907. Take GCUUUGACUACGAGGAUUATT against Ets1: the z-score was inactive: -0.15. With GGGUUUUAGAAUUGCUCUUTT against Tst the figure was inactive: 0.109; with GGACCUGUCUGAAGACUUGTT against Asf1a, inactive: 0.341.

As for CGAUCUUGAUUAGUUUCAUTT against Plp1, the z-score was inactive: 1.42. With GCGAGUUGGAAUUGAGAUCTT against Casp8 the figure was inactive: 0.273. Take GCUACACCAUUGUAAGAAGTT against Gypa: the z-score is inactive: 0.587. GGCUACUUCAUGCUGUAUATT against Bcs1l: the z-score was inactive: 0.785. The same measure for GGAUGUCCCGAAGCUAAGGTT against Ggnbp1: inactive: 0.321. With GGAAGAAGUAGAGAUGCUATT against Myl6 the figure was inactive: 1.78.
